# According to PMC2949800:
# Protein sequences, listed by entry. Tags and fused reporters are not part of them. Lines headed by an entry give the natural chain unless they say otherwise; changes in a name come on top.
# UniProt P31314: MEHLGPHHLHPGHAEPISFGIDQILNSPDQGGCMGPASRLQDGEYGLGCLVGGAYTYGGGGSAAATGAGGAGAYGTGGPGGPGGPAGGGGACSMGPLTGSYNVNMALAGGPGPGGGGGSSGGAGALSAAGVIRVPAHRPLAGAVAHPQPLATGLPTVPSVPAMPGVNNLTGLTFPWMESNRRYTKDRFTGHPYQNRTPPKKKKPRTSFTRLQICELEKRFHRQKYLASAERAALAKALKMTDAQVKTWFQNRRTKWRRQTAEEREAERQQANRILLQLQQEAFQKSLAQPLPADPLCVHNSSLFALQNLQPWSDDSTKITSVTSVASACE
# Target: FLAG-HOX11 wild type (UniProt P31314)
# Test: EMSA
# Conditions: 10 mM Tris-HCl pH 7.6, 50 mM NaCl, 1 mM EDTA, 5% glycerol, 6 ug nuclear extract in 10 ul, room temperature 30 min; 6% native PAGE, 0.5x TBE, EMSA stain; protein in an extract; label: none (gel stained)
sequence,measurement,value
TCCATCCCAGTAATAAGTGTTTT (double strand) [CCNB1 promoter TAAGTG probe],binding result,binds

# For at least one entry, the source does not settle the construct or the ends of the probe. At least one result comes from cells or an extract, where the contact may be indirect.
